From ChEMBL document CHEMBL3988442, “University of Dundee, Small-Polar-MMV Screening Library” (2021).

A: 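Whole-parasite assay of Trypanosoma brucei over 72 hours; the read-out is not stated. Concentration: 30 µM. Higher reads as stronger inhibition (inferred: compounds with an IC50 in retests scored well above the rest). Values scatter widely below zero; nearly all retest evidence comes from the higher of the two concentrations used. Size under these conditions: about 64,000 compounds, about 940 of them at 50% or above in at least one test.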
B: 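Assay of Toxoplasma gondii numbers, read through their beta-galactosidase reporter with a colour substrate. Concentration: 10 µM. Higher reads as fewer parasites (inferred from which compounds were picked for retests). About 67,000 compounds were tested under these conditions; 0.38% (about 260) showed 50% or more at least once.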

The filed quantity is “Percent Effect” (%). The record does not define 0% and 100%; most values in the screen are far below 50% and negative numbers occur (in some assays of this library far below -100). Compounds were drawn at random from those tested, without regard to their results.

O=C(CCc1cccnc1)N1CCC2(CCN(CC3CCCC3)C2)C1.O=C(O)C(F)(F)F.O=C(O)C(F)(F)F (centres undefined) gave A: 8.124%; B: -0.5175%.
CCOc1cc(Cl)ccc1CNC(=O)N(C)CC(C)(C)O gave A: -29.37%; B: 19.11%.
CCCN1CCc2nc(N3CCOCC3)nc(NC(C)C)c2C1 gave A: -24.43%; B: -2.429%.
CC(C)(C)OC(=O)N[C@@H]1C[C@@H](O)CN(C(=O)c2cccc(F)c2)C[C@H]1O gave A: -11.62%; B: 12.25%.
[H][C@@]12COC[C@@H](C(=O)NC)[C@]1([H])CN(C(=O)c1ccc(OC)cc1)C2 gave A: -35.68%; B: 7.811%.
Cc1c(Cl)cccc1NC(=O)CN(Cc1cccnc1)C(C)C gave A: -43.13%; B: 2.185%.
O=C(NC[C@H]1OC[C@@H](NCc2ccccc2F)[C@@H]1O)c1ccc(F)cc1 gave A: -1.142%; B: 2.586%.
CN(CCc1ccccn1)Cc1nccn1Cc1ccccc1 gave A: -39.31%; B: 11.97%.
[H][C@@]12CCNC[C@]1([H])N(C(=O)N1CCCC1)C2 gave A: -23.11%; B: -12.55%.
Cc1nn2cc(CNc3nccc(CCC(F)(F)F)n3)nc2s1 gave A: 10.52%; B: -6.966%.
COCCCN(CCOC)C(=O)Nc1ccc(Br)cc1 gave A: -3.274%; B: 17.3%.
CCn1nc2c(cc1=O)CN(Cc1nc(-c3ccccn3)no1)CC2 gave A: -12.64%; B: -43.83%.
Cc1noc(C(C)C)c1C(=O)NCc1ccc(N(C)C)c(F)c1 gave A: 3.941%; B: 12.39%.
Cc1cc(CN2CCN(S(=O)(=O)c3c(C)c(Cl)cc(C)c3Cl)CC2)on1 gave A: -49.58%; B: -13.85%.
O=C(c1cccnc1-c1ccc2c(c1)OCCO2)N1CCCC1 gave A: -17.68%; B: -6.696%.
COc1ccc2c(c1OC)Cc1c-2nc(N)c(C#N)c1C1CCOC1 (centres undefined) gave A: 38.1%; B: -0.4061%.
Cc1ccc(CNC(=O)Nc2nnc(C)s2)cn1 gave A: 12.98%; B: -5.712%.
O=C(NC1CC1)N1CCn2c(Cn3cccn3)cnc2C1.O=C(O)C(F)(F)F gave A: -1.517%; B: -1.277%.
O=C(O)C(F)(F)F.c1nc2c(c(-c3ccsc3)n1)CCN(Cc1ccoc1)CC2 gave A: -9.722%; B: -19.51%.
c1csc(-c2noc(CC3CCCO3)n2)c1 (centres undefined) gave A: -14.8%; B: 11.48%.
CCc1nnsc1C(=O)N1CCN(CC(O)C(C)(C)C)CC1 (centres undefined) gave A: -24.91%; B: -2.761%.
CC1CCN(CC(O)CNc2ccc(Cl)cn2)CC1 (centres undefined) gave A: -23.79%; B: -5.009%.
COCCN(C)C[C@@H]1CN(c2cc(C)nc3ccccc23)C[C@@H]1CO gave A: 99.51%; B: -0.7671%.
CCN(CC)c1ccc(C(=O)NCc2cccnc2-n2cncn2)cn1 gave A: 4.029%; B: 3.243%.
COc1c(CNCc2cccnc2N2CCCCC2)c(C)nn1C gave A: -35.54%; B: -4.636%.
Cc1cccc(CNc2n[nH]c(C)n2)c1 gave A: -16.36%; B: -12.01%.
O=C(O)C(F)(F)F.c1ccc(OCc2noc3c2CN(c2ncccn2)CC3)nc1 gave A: -64.78%; B: 1.133%.
Cc1cc(C(=O)NCCn2nc3ccccn3c2=O)[nH]n1 gave A: -10.55%; B: -1.88%.
CC(C)c1nccn1-c1cccc(C2CCCN(S(=O)(=O)N(C)C)C2)n1 (centres undefined) gave A: -41.21%; B: -5.947%.

The last 4 entries again:

Cc1cccc(CNc2n[nH]c(C)n2)c1 gave A: -16.36%; B: -12.01%.
O=C(O)C(F)(F)F.c1ccc(OCc2noc3c2CN(c2ncccn2)CC3)nc1 gave A: -64.78%; B: 1.133%.
Cc1cc(C(=O)NCCn2nc3ccccn3c2=O)[nH]n1 gave A: -10.55%; B: -1.88%.
CC(C)c1nccn1-c1cccc(C2CCCN(S(=O)(=O)N(C)C)C2)n1 (centres undefined) gave A: -41.21%; B: -5.947%.